Laboratory results taken from patent publication US7183267B2, “β-lactamase inhibitors and methods of use thereof” (priority 2003, dated 2007).
The name of at least one read-out is uncertain.

Test system: methicillin resistant S. aureus ATCC 33591 (MRSA-ATCC)
Test: Matrix system: oxacillin plus β-lactamase inhibitor, MRSA-ATCC
Format: cell-based
Settings: matrix study, compound 0 μg/ml
Experimental: To each well of a 96 well microtiter plate was added 47.5 μl of MHB. A volume of 2.5 μl of each dilution of oxacillin was then transferred to appropriate wells containing the medium. All wells, except the sterility control wells, were then inoculated with 50 μl of a diluted cell suspension to give a final volume of 100 μl and a final cell density of 5×10^4 CFU/well. The volume in the sterility control wells was adjusted to 100 μl with MHB. A sterile pipette tip was used to mix the contents of each well (one tip was used going from the low to the high concentration in the same column). The microtiter plates were covered with the lids and were placed in large Stratagene Big Blue plates (Cat. # 400041). Four large kimwipes moistened with tap water were placed near the edges of the Stratagene plates to prevent evaporation of the medium. The microtiter plates were incubated for at least 24 hours at 35° C. The plates were then evaluated for growth in each well. Controls included: medium sterility and negative control (medium and bacteria only). […]
The lowest dose at which no visible growth is observed was determined to be the MIC value.
The effect of the four compounds of the present invention on oxacillin resistance of the MRSA strains was determined using a matrix system. […]

SMILES: Cc1onc(-c2ccccc2)c1C(=O)N[C@@H]1C(=O)N2[C@@H]1SC(C)(C)[C@@H]2C(=O)O [Oxacillin, reference compound]
- MIC of oxacillin: 32 µg/mL
